± gives the standard deviation. This is one part of the list. Many of these values have a large error.
System: EfPiwi piRISC loaded with L1MC piRNA (26 nt)
Assay: pre-steady-state target cleavage rate (min^-1); guide: L1MC piRNA 5'p-UAACUAAAUACUAUGCAAGCUGUAGG; MIWI and MILI are mouse PIWI proteins and EfPiwi is from a freshwater sponge; tags in brackets are library labels; higher = faster piRNA-guided slicing of the target
Details: auxiliary factor: none (no Gtsf1)
In short: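 Sequencing of uncleaved targets, normalised to depth and to weakly complementary targets, was the readout of this Cleave-'n-Seq assay. A transcribed, DNA-blocked target RNA library (0.1 nM) was mixed with 1 nM active affinity-purified piRISC carrying one synthetic guide, with or without 500 nM GTSF1 partner protein, in HEPES–potassium acetate buffer at 33 °C for 0–8 or 0–960 min. Three trials were pooled, k3 was capped at 0.0001 min^-1, and a burst-and-steady-state fit gave the pre-steady-state cleavage rate.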

Row | Sequence | pre-steady-state target cleavage rate
1 | UCCUGCUACAGGAAGCAUAGUAUUUACAAA | < 0.0001
2 | UCCUGGAAGUGCUUGCAUAGUAUUUAGAAA | < 0.0001
3 | UCCUGGAUGUCGAAGCACAGUAUUUAGUUA | 0.000302 ± 0.026
4 | UCCUCCUACAGCUUGCAUAGUAUUAUCUAA | 0.000316 ± 0.015
5 | UCCUGGAUGUCGAAGCAUAGUAUUUAGUGUA | 0.000514 ± 0.013
6 | UCCUGGAUGAGCUUGCAAUCUAUUUAGAAA | 0.000157 ± 0.048
7 | UCCUGGAUGAGCUUGCAUACAAUUUACAAA | 0.000162 ± 0.05
8 | UCCUGGAUCAGCUUGCAUACAAUUUAGAAA | 0.000793 ± 0.011
9 | UCCUGGAUCAGCUUCGAUAGUAUUUAGUAA | 0.000506 ± 0.013
10 | UCCUCCUACAGCUUGCAUAGAAUUUACAAA | 0.000357 ± 0.013
11 | UCCUGCUACAGCUUGCAUAGUAUUUAUUA | 0.000706 ± 0.011
12 | UCCUGCUUCAGCUUCCAUAGUAUUUAGUUA | 0.000532 ± 0.011
13 | UCCUGGAACAGCUUGCAUAGUUUUUACAAA | 0.000447 ± 0.019
14 | UCCUGGAUGUGCUACGAUAGUAUUUAGAAA | 0.000414 ± 0.02
15 | UCCUGCUACAGCUUGCAUAGUAUAAUGAAA | 0.000462 ± 0.013
16 | UCCUGGAUGAGCUUGGAUUGUAUUUAGUUA | < 0.0001
17 | UCCUGGAAGUCCUUGCAUAGUAUUUAGAAA | 0.000113 ± 0.023
18 | UCCUGCUACAGCUUGCAUAGUAUUAUCUAA | 0.000103 ± 0.03
19 | UCCUGGAUGUCGUUGCAUAGUUAAAUCAAA [g10:g18:cont:t1A] | 0.0001 ± 0.038
20 | UCCUGGAACAGCUUCCAUAGUAUUUACUUA | < 0.0001
21 | UCCUGCUACAGCUUGCAUAGAUUUAGUUA | 0.000566 ± 0.011
22 | UCCUGGAUGUGCUUCCAUAGUAUUUAGUUA | 0.0006 ± 0.013
23 | UCCUGGAACAGCUUCCAUAGUAUUUACAAA | 0.000457 ± 0.016
24 | UCCUGGAUGUCCUUGCAAUGUAUUUAGUAA | 0.000425 ± 0.016

Single entries from the entries so far:
Value of UCCUGGAUGAGCUUGGAUUGUAUUUAGUUA under pre-steady-state target cleavage rate: < 0.0001
Value of UCCUGGAUGUGCUACGAUAGUAUUUAGAAA under pre-steady-state target cleavage rate: 0.000414 ± 0.02

From the supplement of paper PMC10338343
